For at least one entry, the source does not settle the construct or the ends of the probe. Where cells or extracts were used, other partners may take part. A negative result means that nothing was seen under these conditions.
Target: p53 (wild-type, p53-1) (Homo sapiens) (UniProt P04637)
Test: EMSA
Settings: protein in a lysate after overexpression, protein details: expressed from p53-1 plasmid in U2OS cells, variant of LITAF promoter -600~-400
[1] = binding completely blocked, label: 32P

“GCCCCCGCCCCCGTCCCCGCCGCCCGGCCCTTTTCTCGGGGCGCGGGCGGCGGTGAGTGCGGCGCGGGGACGCCGGGGCGCGGGGACCAG / CCCAGCCAAGGGCTCAGTGCCCGGGGCCCCCAGCAGGTGCTGGCGCCACCGGCCCCCCGCTGTCTCCCGCTGGTCCCCGCGCCCCGGCG [LITAF promoter -600~-400 del -560~-520]”: no binding [1].
“GCCCCCGCCCCCGTCCCCGCCGCCCGGCCCTTTTCTCGGGGCGCCCGAGAGGCCAGCTCAGACCTCCCGGCTCGACAGGCCGGGGACCAG / CCCCAGCCAAGGGCTCAGTGCCCGGGGCCCCCAGCAGGTGCTGGCGCCACCGGCCCCCCGCTGTCTCCCGCTGGTCCCCGGCCTGTCGAG [LITAF promoter -600~-400 del -520~-480]”: no binding [1].
“GCCCCCGCCCCCGTCCCCGCCGCCCGGCCCTTTTCTCGGGGCGCCCGAGAGGCCAGCTCAGACCTCCCGGCTCGACAGGCGGCGCGGGCGGCGGTGAGTG / CCCCAGCCAAGGGCTCAGTGCCCGGGGCCCCCAGCAGGTCCCCGGCGTCCCCGCGCCGCACTCACCGCCGCCCGCGCC [LITAF promoter -600~-400 del -480~-440]”: binds (deletion did not significantly affect binding, label: …).
